Two molecules from publication PMC7619307, “The Golgi vesicle tether p115 can bind directly to the ER exit site organiser Sec16A” (Journal of cell science, 2026) can be followed below.

Chains of the proteins cited; added tags and fusions are not shown. Lines headed by an entry give the natural chain unless they say otherwise; changes in a name come on top.
UniProt O15027: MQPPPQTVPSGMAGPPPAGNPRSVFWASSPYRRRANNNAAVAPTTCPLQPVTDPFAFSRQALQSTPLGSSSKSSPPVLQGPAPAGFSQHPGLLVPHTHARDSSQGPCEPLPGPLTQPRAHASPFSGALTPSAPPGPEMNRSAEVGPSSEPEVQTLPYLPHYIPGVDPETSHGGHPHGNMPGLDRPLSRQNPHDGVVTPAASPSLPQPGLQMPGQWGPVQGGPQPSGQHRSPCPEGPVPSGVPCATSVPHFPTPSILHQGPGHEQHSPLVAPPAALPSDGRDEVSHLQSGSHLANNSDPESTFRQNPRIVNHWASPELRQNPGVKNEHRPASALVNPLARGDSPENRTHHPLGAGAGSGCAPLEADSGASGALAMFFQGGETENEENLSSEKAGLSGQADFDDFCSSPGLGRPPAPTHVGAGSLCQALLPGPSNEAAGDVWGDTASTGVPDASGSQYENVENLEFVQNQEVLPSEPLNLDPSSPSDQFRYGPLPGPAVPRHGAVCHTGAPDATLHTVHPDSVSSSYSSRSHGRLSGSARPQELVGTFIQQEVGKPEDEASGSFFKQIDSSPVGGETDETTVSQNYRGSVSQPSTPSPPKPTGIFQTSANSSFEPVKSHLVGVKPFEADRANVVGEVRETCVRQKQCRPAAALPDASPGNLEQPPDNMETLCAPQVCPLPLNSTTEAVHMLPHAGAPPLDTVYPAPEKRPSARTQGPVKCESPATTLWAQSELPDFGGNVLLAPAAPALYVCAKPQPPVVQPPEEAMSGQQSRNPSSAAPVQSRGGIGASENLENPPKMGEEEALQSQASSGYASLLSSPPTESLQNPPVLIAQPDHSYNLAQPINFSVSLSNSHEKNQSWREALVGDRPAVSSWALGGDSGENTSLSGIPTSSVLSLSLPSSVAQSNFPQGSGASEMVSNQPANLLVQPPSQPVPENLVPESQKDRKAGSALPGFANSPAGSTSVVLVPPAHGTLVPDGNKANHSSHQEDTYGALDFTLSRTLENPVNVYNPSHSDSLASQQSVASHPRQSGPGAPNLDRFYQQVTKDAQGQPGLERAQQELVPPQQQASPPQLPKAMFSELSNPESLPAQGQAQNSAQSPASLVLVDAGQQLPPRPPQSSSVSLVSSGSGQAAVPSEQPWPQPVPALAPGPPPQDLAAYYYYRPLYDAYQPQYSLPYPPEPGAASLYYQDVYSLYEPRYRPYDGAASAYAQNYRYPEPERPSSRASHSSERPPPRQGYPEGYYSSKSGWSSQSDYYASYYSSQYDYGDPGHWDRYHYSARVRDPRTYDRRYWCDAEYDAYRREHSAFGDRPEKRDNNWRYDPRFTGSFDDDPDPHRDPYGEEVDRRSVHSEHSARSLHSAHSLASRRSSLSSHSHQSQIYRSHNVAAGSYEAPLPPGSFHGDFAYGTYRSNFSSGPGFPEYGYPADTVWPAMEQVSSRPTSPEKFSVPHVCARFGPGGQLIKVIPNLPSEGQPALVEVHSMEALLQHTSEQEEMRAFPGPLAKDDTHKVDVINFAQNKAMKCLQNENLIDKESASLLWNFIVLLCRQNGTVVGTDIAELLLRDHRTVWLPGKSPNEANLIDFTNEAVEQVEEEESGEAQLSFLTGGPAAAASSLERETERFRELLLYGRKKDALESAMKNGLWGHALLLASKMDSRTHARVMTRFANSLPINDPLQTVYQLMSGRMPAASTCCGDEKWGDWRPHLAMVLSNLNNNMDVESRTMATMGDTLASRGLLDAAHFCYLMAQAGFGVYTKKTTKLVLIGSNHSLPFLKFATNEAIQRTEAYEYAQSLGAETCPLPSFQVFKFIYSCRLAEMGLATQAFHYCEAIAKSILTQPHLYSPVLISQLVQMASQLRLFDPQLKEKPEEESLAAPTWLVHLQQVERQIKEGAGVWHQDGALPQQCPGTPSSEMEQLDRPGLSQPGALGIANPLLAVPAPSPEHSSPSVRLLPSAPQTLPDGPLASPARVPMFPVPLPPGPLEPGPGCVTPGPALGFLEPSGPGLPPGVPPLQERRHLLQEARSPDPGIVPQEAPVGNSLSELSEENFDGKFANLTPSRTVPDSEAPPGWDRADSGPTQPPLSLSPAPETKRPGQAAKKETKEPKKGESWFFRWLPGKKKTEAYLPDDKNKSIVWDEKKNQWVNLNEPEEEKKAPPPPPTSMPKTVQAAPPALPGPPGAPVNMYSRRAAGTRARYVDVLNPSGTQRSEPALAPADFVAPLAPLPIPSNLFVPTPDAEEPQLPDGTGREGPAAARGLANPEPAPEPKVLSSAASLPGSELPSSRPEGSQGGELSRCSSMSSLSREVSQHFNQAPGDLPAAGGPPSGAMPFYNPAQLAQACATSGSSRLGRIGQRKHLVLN

Results are given in words; binding and its absence hold for the method and conditions named. For some of these results: In cells and extracts the contact can be indirect.

For assay [1], the target named is Sec16A (650–776) GFP fusion with site 2 mutations to alanine (human) (UniProt O15027). The assay can be described thus: co-IP; GFP-tagged protein expressed in HEK293T cells, precipitated on GFP-Trap agarose (lysis with 150 mM NaCl, 0.5% Triton X-100; washes with 300 mM NaCl; 4°C); endogenous partner detected by immunoblot.
In assay [2] the target is Sec16A (650–776) GFP fusion with site 1 mutations to alanine (human) (UniProt O15027). Described as above.
Assay [3] addresses mitochondrial form of Sec16A (650–776) with site 1 mutations (human) (UniProt O15027). The assay can be described thus: mitochondrial relocation assay (confocal microscopy); one partner anchored on mitochondria in HeLa cells (HA–MAO chimera); relocation of the endogenous or co-expressed partner to mitochondria seen by immunofluorescence or GFP.
Assay [4] deals with mitochondrial form of Sec16A (650–776) with site 2 mutations (human) (UniProt O15027). Described as above.

B1: endogenous p115 (HEK293T) (protein, UniProt O60763 1-962)
chain: MNFLRGVMGGQSAGPQHTEAETIQKLCDRVASSTLLDDRRNAVRALKSLSKKYRLEVGIQAMEHLIHVLQTDRSDSEIIGYALDTLYNIISNEEEEEVEENSTRQSEDLGSQFTEIFIKQQENVTLLLSLLEEFDFHVRWPGVKLLTSLLKQLGPQVQQIILVSPMGVSRLMDLLADSREVIRNDGVLLLQALTRSNGAIQKIVAFENAFERLLDIISEEGNSDGGIVVEDCLILLQNLLKNNNSNQNFFKEGSYIQRMKPWFEVGDENSGWSAQKVTNLHLMLQLVRVLVSPTNPPGATSSCQKAMFQCGLLQQLCTILMATGVPADILTETINTVSEVIRGCQVNQDYFASVNAPSNPPRPAIVVLLMSMVNERQPFVLRCAVLYCFQCFLYKNQKGQGEIVSTLLPSTIDATGNSVSAGQLLCGGLFSTDSLSNWCAAVALAHALQENATQKEQLLRVQLATSIGNPPVSLLQQCTNILSQGSKIQTRVGLLMLLCTWLSNCPIAVTHFLHNSANVPFLTGQIAENLGEEEQLVQGLCALLLGISIYFNDNSLESYMKEKLKQLIEKRIGKENFIEKLGFISKHELYSRASQKPQPNFPSPEYMIFDHEFTKLVKELEGVITKAIYKSSEEDKKEEEVKKTLEQHDNIVTHYKNMIREQDLQLEELRQQVSTLKCQNEQLQTAVTQQVSQIQQHKDQYNLLKIQLGKDNQHQGSYSEGAQMNGIQPEEIGRLREEIEELKRNQELLQSQLTEKDSMIENMKSSQTSGTNEQSSAIVSARDSEQVAELKQELATLKSQLNSQSVEITKLQTEKQELLQKTEAFAKSVEVQGETETIIATKTTDVEGRLSALLQETKELKNEIKALSEERTAIKEQLDSSNSTIAILQTEKDKLELEITDSKKEQDDLLVLLADQDQKILSLKNKLKDLGHPVEEEDELESGDQEDEDDESEDPGKDLDHI
For B1, the binding entry in assay [1] and in assay [2] was “no binding” each time.

B2: endogenous p115 (HeLa) (protein, UniProt O60763 1-962)
chain: B1 chain
Consider B2, for which the binding entry in assay [3] and in assay [4] was “no binding” throughout.
